# The list does not hold the whole screen: it is rich in T/C values a quarter to a half above the control, in often repeated tests (any T/C) and in doses without a T/C. Further doses and runs are listed elsewhere. T/C is the treated group as % of the vehicle group. Some doses have a count of surviving animals in place of a T/C: the source holds a T/C of zero for them, seemingly a mark for toxic or unscored doses. Some doses without a T/C left all or most animals alive at the check, yet need not have been tolerated: the source hardly ever lists a survival T/C far under the control, and the zero likely stands for such cases as well. Survivors were counted at the toxicity check, usually on the fifth day, unless a day is given; later deaths do not show. Schedule codes are those of the source, taken here to give the interval after Q, in days (D) or hours (H), and the number of doses after X. Some entries were tested several times; the values are given in rising order. For survival time, this PubChem deposit counts one and a half times the control or more as active, and values a quarter to a half above the control carry no call in these data; other NCI protocols may use other cut-offs. Some T/C values carry the count of animals alive at the toxicity check (mostly the fifth day); without a count, all were alive then.
# Test system: P388 leukemia ip, CD2F1 mice, survival T/C
# Experiment: NCI In Vivo Anticancer Drug Screen. Data for tumor model P388 Leukemia (intraperitoneal) in CD2F1 (CDF1) mice
# Details: T/C endpoint: median survival time, higher T/C = longer survival
# [1] = dose: 6.25 mg/kg/injection, schedule: Q01DX009 (ip), vehicle: saline
# [2] = dose: 12.5 mg/kg/injection, schedule: Q01DX009 (ip), vehicle: saline
# [3] = dose: 25.0 mg/kg/injection, schedule: Q01DX009 (ip), vehicle: saline
# [4] = dose: 50.0 mg/kg/injection, schedule: Q01DX009 (ip), vehicle: saline
# [5] = dose: 60.0 mg/kg/injection, schedule: Q01DX005 (ip), vehicle: Klucel (hydroxypropylcellulose) (HPC)
# [6] = dose: 240.0 mg/kg/injection, schedule: Q01DX005 (ip), vehicle: Klucel (hydroxypropylcellulose) (HPC)
# [7] = dose: 50.0 mg/kg/injection, schedule: Q01DX009 (ip), vehicle: Klucel (hydroxypropylcellulose) (HPC)
# [8] = dose: 200.0 mg/kg/injection, schedule: Q01DX009 (ip), vehicle: Klucel (hydroxypropylcellulose) (HPC)
compound,measurement,setting,value
O=C1C2CCCN2C(=O)C2([S-])CCCN12.O=C1C2CCCN2C(=O)C2([S-])CCCN12.[Zn+2] (stereo unspecified),T/C,[1],95 % of control
same,survivor count,[1],6 of 6
same,T/C,[2],"91, 98, 103 [4 of 6 alive], 107 % of control"
same,survivor count,[2],5 of 6
same,T/C,[3],"104, 115, 116 % of control"
same,survivor count,[3],6 of 6
same,T/C,[4],"91 [4 of 6 alive], 98, 111, 116, 120, 133 % of control"
same,survivor count,"dose: 100.0 mg/kg/injection, schedule: Q01DX009 (ip), vehicle: saline",1 of 6
same,survivor count,"dose: 200.0 mg/kg/injection, schedule: Q01DX009 (ip), vehicle: saline",0 of 6
O=C1C2=C(Nc3cc([N+](=O)[O-])ccc3N2)OC1c1ccccn1 (stereo unspecified),T/C,[5],132 % of control
same,T/C,"dose: 120.0 mg/kg/injection, schedule: Q01DX005 (ip), vehicle: Klucel (hydroxypropylcellulose) (HPC)",133 % of control
same,survivor count,[6],2 of 6
[O-]/[N+](C1C(Cl)C2CC1C1C=CCC12)=[N+](\[O-])C1C(Cl)C2CC1C1C=CCC12 (stereo unspecified),survivor count,"dose: 120.0 mg/kg/injection, schedule: Q01DX005 (ip), vehicle: saline with Tween-80",6 of 6
same,survivor count,"dose: 240.0 mg/kg/injection, schedule: Q01DX005 (ip), vehicle: saline with Tween-80",6 of 6
CN(C)c1ccc(/C=N/O)cc1,survivor count,[7],6 of 6
CCOC(=O)/C=C(\C)NC1CC(OC2CC(O)(C(=O)CO)Cc3c(O)c4c(c(O)c32)C(=O)c2c(OC)cccc2C4=O)OC(C)C1O (stereo unspecified),T/C,"dose: 25.0 mg/kg/injection, schedule: Q04DX003 (ip), vehicle: saline with Tween-80",126 % of control
N#CC1=C(N)OC(C2CC2)=C(C#N)C1c1ccco1 (stereo unspecified),survivor count,[6],6 of 6
CS/C(=N/N=C(\C)c1ccccn1)[Se][Se]/C(=N/N=C(\C)c1ccccn1)SC,survivor count,"dose: 25.0 mg/kg/injection, schedule: Q01DX009 (ip), vehicle: saline with Tween-80",6 of 6
same,survivor count,"dose: 50.0 mg/kg/injection, schedule: Q01DX009 (ip), vehicle: saline with Tween-80",6 of 6
same,survivor count,"dose: 100.0 mg/kg/injection, schedule: Q01DX009 (ip), vehicle: saline with Tween-80",3 of 6 and 6 of 6
CC1CC2OC(/C=C/C=C/C=C\C=C\C=C\C(O)=C3\C(=O)C(C(C)C)N(C)C3=O)C(O)C2O1 (stereo unspecified),T/C,"dose: 6.0 mg/kg/injection, schedule: Q01DX005 (ip), vehicle: Klucel (hydroxypropylcellulose) (HPC)",127 and 140 % of control
same,T/C,"dose: 12.0 mg/kg/injection, schedule: Q01DX005 (ip), vehicle: Klucel (hydroxypropylcellulose) (HPC)",135 and 139 % of control
same,T/C,"dose: 24.0 mg/kg/injection, schedule: Q01DX005 (ip), vehicle: Klucel (hydroxypropylcellulose) (HPC)",147 and 148 % of control
Cc1c(-c2ccccc2)nc(N)n1C,survivor count,"dose: 100.0 mg/kg/injection, schedule: Q04DX002 (ip), vehicle: saline",0 of 6
same,survivor count,"dose: 200.0 mg/kg/injection, schedule: Q04DX002 (ip), vehicle: saline",0 of 6
same,survivor count,"dose: 400.0 mg/kg/injection, schedule: Q04DX002 (ip), vehicle: saline",0 of 6
COc1ccc2cc1-c1cc(ccc1O)CCC(O)CC1CCCC(CC(OC(C)=O)CC2)N1 (stereo unspecified),survivor count,"dose: 120.0 mg/kg/injection, schedule: Q01DX009 (ip), vehicle: Klucel (hydroxypropylcellulose) (HPC)",0 of 6
NC1=C(O)C(=O)C(c2cccnc2)O1 (stereo unspecified),survivor count,[5],6 of 6
CC(O)CCC(=O)c1ccoc1 (stereo unspecified),survivor count,"dose: 30.0 mg/kg/injection, schedule: Q01DX005 (ip), vehicle: saline",3 of 6
same,survivor count,"dose: 60.0 mg/kg/injection, schedule: Q01DX005 (ip), vehicle: saline",0 of 6
same,survivor count,"dose: 120.0 mg/kg/injection, schedule: Q01DX005 (ip), vehicle: saline",0 of 6
same,survivor count,"dose: 240.0 mg/kg/injection, schedule: Q01DX005 (ip), vehicle: saline",0 of 6
O=S1C2CCC(Br)C1CCC2Br (stereo unspecified),survivor count,"dose: 3.12 mg/kg/injection, schedule: Q04DX002 (ip), vehicle: saline + alcohol",3 of 6
same,survivor count,"dose: 6.25 mg/kg/injection, schedule: Q04DX002 (ip), vehicle: saline + alcohol",0 of 6
same,survivor count,"dose: 12.5 mg/kg/injection, schedule: Q04DX002 (ip), vehicle: saline + alcohol",0 of 6
same,survivor count,"dose: 25.0 mg/kg/injection, schedule: Q04DX002 (ip), vehicle: saline + alcohol",0 of 6
same,survivor count,"dose: 50.0 mg/kg/injection, schedule: Q04DX002 (ip), vehicle: saline + alcohol",0 of 6
same,survivor count,"dose: 100.0 mg/kg/injection, schedule: Q04DX002 (ip), vehicle: saline + alcohol",0 of 6
same,survivor count,"dose: 200.0 mg/kg/injection, schedule: Q04DX002 (ip), vehicle: saline + alcohol",0 of 6
same,survivor count,"dose: 400.0 mg/kg/injection, schedule: Q04DX002 (ip), vehicle: saline + alcohol",0 of 6
O=C1c2ccccc2C(=O)N1Cc1ccccc1[N+](=O)[O-],survivor count,[4],6 of 6
O=C(CC(c1ccccc1)C(Sc1ccccc1)(Sc1ccccc1)Sc1ccccc1)c1ccccc1 (stereo unspecified),survivor count,[8],6 of 6
COC(=O)C(N)Cc1ccc(O)c(O)c1 (stereo unspecified),survivor count,"dose: 12.5 mg/kg/injection, schedule: Q08HX028 (ip), vehicle: water",6 of 6
same,survivor count,"dose: 25.0 mg/kg/injection, schedule: Q08HX028 (ip), vehicle: water",6 of 6
same,T/C,"dose: 400.0 mg/kg/injection, schedule: Q01DX009 (ip), vehicle: saline",131 and 142 % of control
same,T/C,"dose: 400.0 mg/kg/injection, schedule: Q08HX028 (ip), vehicle: water",138 % of control
same,T/C,"dose: 800.0 mg/kg/injection, schedule: Q01DX009 (ip), vehicle: saline",135 % of control
same,T/C,"dose: 800.0 mg/kg/injection, schedule: Q08HX028 (ip), vehicle: water",129 % of control
same,survivor count,"dose: 1600.0 mg/kg/injection, schedule: Q01DX009 (ip), vehicle: saline",1 of 6 and 2 of 6
O=C(O)CCCSC1=CC(=O)c2ccccc2C1=O,survivor count,"dose: 25.0 mg/kg/injection, schedule: Q04DX003 (ip), vehicle: DMSO",0 of 6
same,survivor count,"dose: 50.0 mg/kg/injection, schedule: Q04DX003 (ip), vehicle: DMSO",0 of 6
same,survivor count,"dose: 100.0 mg/kg/injection, schedule: Q04DX003 (ip), vehicle: DMSO",0 of 6
same,survivor count,"dose: 200.0 mg/kg/injection, schedule: Q04DX003 (ip), vehicle: DMSO",0 of 6
CCN=C1C=CC(=C(c2ccc(N)cc2)c2ccc(N(CC)CC)c(C)c2)C=C1,T/C,"dose: 6.25 mg/kg/injection, schedule: Q01DX005 (ip), vehicle: saline with Tween-80",126 % of control
same,T/C,"dose: 6.25 mg/kg/injection, schedule: Q01DX005 (ip), vehicle: saline",139 % of control
same,survivor count,"dose: 12.5 mg/kg/injection, schedule: Q01DX005 (ip), vehicle: saline with Tween-80",1 of 5
same,T/C,"dose: 12.5 mg/kg/injection, schedule: Q01DX005 (ip), vehicle: saline",130 % of control
same,survivor count,"dose: 25.0 mg/kg/injection, schedule: Q01DX005 (ip), vehicle: saline with Tween-80",0 of 5
same,survivor count,"dose: 50.0 mg/kg/injection, schedule: Q01DX005 (ip), vehicle: saline with Tween-80",1 of 5
same,survivor count,"dose: 100.0 mg/kg/injection, schedule: Q01DX005 (ip), vehicle: saline with Tween-80",0 of 5
same,survivor count,"dose: 200.0 mg/kg/injection, schedule: Q01DX005 (ip), vehicle: saline with Tween-80",0 of 5
O=C1Nc2ccccc2/C1=N/N=C/c1ccccc1Cl,survivor count,[7],6 of 6
same,survivor count,"dose: 100.0 mg/kg/injection, schedule: Q01DX009 (ip), vehicle: Klucel (hydroxypropylcellulose) (HPC)",6 of 6
same,survivor count,[8],2 of 6
CN(C)CCCOC1=Nc2ccccc2O/C1=C/c1ccccc1,survivor count,"dose: 200.0 mg/kg/injection, schedule: Q04DX003 (ip), vehicle: saline",4 of 6
same,survivor count,"dose: 400.0 mg/kg/injection, schedule: Q04DX003 (ip), vehicle: saline",0 of 6

# From PubChem BioAssay AID330 (DTP/NCI, 2004)
